Part of at least one peptide drawing is inferred or uncertain, most often the ends. At least one compound was matched to its structure with a doubt left. Bridge positions count the residues as written; N and C are the ends. Peptide text beside a SMILES is read from it. * marks the point of attachment. Biotin = O=C1N[C@H]2[C@H](CS[C@H]2CCCCC(=O)*)N1
Columns and labels:
[1] = tested on: vascular collagen of rat aorta sections; assay: Histochemical analysis of peptide binding on rat aorta sections; conditions: biotinylated peptide, peroxydase detection
bovine fibrinogen = target: T1, bovine fibrinogen (Bos taurus, UniProt P02672+P02676+P12799); assay: Solid phase assay on immobilized fibrinogen; assay type: binding; conditions: 50 μg/mL, versus bovine serum albumin
T1 construct: purchased Sigma
T1 sequence (P02672 20-615): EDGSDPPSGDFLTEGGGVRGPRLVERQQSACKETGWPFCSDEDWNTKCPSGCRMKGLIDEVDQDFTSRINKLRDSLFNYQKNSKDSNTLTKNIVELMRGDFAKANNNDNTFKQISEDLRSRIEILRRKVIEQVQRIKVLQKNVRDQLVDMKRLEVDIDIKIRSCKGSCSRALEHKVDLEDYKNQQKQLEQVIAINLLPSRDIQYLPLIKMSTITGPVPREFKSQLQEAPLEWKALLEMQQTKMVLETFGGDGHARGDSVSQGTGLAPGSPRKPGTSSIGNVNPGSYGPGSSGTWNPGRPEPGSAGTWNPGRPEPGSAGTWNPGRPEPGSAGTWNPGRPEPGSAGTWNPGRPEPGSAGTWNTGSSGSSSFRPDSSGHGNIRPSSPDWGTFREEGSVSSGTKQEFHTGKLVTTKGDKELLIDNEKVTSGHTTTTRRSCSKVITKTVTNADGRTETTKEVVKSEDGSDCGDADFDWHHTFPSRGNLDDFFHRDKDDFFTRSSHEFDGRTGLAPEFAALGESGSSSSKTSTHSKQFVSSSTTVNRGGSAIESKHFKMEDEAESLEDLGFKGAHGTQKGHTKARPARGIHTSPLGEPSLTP
T1 sequence (P02676 1-468): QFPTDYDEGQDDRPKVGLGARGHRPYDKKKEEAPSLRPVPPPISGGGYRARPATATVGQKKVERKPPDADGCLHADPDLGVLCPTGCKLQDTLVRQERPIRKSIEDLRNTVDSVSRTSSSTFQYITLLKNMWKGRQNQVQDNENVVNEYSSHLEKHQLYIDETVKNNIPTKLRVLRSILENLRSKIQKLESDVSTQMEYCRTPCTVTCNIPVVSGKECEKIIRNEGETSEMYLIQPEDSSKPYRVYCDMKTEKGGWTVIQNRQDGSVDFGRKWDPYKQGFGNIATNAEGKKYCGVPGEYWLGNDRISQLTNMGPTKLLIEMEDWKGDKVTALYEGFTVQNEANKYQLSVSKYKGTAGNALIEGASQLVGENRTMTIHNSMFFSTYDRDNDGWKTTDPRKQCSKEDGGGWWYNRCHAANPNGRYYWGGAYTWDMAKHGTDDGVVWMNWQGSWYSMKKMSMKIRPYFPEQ
T1 sequence (P12799 25-444): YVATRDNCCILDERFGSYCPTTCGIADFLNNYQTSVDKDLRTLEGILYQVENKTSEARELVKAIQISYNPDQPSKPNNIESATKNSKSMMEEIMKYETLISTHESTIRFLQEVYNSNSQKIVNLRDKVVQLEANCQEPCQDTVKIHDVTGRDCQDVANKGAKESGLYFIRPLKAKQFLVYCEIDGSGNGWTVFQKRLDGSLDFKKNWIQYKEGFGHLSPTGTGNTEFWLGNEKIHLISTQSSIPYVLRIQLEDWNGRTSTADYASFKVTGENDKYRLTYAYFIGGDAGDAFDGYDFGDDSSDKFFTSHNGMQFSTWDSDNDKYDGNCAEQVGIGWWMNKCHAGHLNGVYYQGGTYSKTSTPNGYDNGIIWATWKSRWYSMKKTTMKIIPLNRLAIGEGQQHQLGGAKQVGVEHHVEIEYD

Amino acid sequences for entries named in this document (tags omitted). Residues count along the entry.
UniProt P02468, 34-1607: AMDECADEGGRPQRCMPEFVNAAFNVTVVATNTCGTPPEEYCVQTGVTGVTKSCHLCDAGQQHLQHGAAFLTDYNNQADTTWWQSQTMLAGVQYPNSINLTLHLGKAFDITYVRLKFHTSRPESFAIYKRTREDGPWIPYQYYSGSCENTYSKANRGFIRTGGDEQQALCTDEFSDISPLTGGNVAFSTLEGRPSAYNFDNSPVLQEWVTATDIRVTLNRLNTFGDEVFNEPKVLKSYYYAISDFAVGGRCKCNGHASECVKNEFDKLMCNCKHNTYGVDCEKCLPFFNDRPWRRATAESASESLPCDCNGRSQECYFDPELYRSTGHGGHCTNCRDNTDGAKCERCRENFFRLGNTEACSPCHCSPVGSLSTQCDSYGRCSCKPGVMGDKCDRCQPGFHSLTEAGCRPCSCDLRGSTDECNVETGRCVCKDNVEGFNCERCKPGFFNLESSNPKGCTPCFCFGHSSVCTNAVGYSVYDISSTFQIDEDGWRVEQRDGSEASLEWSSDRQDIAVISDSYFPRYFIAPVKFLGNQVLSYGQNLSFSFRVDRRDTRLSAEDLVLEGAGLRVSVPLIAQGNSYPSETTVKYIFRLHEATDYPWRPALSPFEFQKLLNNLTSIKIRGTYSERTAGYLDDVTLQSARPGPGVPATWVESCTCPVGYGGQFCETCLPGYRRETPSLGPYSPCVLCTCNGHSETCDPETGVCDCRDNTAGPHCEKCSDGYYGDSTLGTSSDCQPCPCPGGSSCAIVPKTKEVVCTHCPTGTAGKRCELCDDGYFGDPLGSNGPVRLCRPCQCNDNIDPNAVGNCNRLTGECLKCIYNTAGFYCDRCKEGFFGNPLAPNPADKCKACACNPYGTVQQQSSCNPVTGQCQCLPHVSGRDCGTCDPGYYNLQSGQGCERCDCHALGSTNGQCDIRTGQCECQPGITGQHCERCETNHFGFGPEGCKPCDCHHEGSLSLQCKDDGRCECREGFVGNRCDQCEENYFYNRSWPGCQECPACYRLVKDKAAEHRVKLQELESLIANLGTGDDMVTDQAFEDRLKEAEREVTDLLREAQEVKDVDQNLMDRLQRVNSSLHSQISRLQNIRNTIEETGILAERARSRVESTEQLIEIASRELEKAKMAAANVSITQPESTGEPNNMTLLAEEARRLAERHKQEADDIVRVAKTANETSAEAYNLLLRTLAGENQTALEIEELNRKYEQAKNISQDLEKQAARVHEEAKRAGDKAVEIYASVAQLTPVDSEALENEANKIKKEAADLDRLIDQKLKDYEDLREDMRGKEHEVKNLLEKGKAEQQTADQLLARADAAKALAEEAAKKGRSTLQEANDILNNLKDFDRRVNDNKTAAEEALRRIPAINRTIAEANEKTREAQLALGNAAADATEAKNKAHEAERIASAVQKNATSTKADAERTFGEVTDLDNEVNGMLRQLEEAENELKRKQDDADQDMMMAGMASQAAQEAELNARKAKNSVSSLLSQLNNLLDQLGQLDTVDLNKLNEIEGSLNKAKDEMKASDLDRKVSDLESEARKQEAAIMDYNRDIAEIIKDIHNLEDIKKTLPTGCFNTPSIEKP
UniProt P02469, 22-1786: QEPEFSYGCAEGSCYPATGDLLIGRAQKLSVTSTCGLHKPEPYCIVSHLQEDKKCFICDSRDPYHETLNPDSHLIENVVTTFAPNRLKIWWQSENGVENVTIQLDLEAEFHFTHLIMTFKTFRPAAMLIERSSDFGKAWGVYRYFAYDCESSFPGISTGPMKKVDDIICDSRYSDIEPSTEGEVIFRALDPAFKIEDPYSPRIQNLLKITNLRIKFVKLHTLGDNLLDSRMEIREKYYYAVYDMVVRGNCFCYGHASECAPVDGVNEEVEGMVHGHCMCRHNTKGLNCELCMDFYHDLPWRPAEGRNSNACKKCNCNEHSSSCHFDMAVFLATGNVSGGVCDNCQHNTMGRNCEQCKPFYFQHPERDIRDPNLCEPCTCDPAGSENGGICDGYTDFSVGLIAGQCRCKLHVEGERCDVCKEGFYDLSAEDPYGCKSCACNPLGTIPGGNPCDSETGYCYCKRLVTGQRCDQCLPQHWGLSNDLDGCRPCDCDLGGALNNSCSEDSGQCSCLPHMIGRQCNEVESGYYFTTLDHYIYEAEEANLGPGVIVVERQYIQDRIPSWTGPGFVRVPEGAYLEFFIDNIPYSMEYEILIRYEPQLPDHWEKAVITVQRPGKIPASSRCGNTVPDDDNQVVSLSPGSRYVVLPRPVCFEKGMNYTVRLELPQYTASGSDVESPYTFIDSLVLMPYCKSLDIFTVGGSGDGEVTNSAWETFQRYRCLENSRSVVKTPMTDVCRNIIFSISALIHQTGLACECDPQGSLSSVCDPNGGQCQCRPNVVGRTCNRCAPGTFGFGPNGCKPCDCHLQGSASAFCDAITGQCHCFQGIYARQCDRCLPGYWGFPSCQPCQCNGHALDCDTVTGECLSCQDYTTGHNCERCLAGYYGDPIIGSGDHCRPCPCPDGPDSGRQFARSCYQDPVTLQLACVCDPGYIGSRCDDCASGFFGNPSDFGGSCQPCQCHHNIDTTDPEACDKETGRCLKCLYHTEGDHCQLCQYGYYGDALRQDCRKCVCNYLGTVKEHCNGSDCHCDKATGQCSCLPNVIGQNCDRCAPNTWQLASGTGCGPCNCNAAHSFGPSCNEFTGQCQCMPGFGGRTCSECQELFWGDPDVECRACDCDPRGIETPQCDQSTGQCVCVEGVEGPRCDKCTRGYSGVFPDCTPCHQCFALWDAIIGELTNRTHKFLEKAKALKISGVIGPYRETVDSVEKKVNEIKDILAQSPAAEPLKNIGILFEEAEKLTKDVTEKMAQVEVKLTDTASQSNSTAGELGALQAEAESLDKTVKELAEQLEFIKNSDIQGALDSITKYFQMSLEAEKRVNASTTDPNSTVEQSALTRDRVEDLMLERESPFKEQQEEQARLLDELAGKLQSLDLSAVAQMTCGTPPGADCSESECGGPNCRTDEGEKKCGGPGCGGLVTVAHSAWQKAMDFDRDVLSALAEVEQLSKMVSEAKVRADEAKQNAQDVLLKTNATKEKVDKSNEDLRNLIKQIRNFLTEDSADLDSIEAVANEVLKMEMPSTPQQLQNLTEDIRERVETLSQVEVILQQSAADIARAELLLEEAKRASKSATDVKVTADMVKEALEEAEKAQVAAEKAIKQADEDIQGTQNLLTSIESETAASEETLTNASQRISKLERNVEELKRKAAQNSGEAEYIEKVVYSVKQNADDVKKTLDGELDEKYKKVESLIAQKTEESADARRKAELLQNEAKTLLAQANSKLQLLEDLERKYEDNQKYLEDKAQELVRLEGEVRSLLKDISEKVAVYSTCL
UniProt P19137, 25-3083: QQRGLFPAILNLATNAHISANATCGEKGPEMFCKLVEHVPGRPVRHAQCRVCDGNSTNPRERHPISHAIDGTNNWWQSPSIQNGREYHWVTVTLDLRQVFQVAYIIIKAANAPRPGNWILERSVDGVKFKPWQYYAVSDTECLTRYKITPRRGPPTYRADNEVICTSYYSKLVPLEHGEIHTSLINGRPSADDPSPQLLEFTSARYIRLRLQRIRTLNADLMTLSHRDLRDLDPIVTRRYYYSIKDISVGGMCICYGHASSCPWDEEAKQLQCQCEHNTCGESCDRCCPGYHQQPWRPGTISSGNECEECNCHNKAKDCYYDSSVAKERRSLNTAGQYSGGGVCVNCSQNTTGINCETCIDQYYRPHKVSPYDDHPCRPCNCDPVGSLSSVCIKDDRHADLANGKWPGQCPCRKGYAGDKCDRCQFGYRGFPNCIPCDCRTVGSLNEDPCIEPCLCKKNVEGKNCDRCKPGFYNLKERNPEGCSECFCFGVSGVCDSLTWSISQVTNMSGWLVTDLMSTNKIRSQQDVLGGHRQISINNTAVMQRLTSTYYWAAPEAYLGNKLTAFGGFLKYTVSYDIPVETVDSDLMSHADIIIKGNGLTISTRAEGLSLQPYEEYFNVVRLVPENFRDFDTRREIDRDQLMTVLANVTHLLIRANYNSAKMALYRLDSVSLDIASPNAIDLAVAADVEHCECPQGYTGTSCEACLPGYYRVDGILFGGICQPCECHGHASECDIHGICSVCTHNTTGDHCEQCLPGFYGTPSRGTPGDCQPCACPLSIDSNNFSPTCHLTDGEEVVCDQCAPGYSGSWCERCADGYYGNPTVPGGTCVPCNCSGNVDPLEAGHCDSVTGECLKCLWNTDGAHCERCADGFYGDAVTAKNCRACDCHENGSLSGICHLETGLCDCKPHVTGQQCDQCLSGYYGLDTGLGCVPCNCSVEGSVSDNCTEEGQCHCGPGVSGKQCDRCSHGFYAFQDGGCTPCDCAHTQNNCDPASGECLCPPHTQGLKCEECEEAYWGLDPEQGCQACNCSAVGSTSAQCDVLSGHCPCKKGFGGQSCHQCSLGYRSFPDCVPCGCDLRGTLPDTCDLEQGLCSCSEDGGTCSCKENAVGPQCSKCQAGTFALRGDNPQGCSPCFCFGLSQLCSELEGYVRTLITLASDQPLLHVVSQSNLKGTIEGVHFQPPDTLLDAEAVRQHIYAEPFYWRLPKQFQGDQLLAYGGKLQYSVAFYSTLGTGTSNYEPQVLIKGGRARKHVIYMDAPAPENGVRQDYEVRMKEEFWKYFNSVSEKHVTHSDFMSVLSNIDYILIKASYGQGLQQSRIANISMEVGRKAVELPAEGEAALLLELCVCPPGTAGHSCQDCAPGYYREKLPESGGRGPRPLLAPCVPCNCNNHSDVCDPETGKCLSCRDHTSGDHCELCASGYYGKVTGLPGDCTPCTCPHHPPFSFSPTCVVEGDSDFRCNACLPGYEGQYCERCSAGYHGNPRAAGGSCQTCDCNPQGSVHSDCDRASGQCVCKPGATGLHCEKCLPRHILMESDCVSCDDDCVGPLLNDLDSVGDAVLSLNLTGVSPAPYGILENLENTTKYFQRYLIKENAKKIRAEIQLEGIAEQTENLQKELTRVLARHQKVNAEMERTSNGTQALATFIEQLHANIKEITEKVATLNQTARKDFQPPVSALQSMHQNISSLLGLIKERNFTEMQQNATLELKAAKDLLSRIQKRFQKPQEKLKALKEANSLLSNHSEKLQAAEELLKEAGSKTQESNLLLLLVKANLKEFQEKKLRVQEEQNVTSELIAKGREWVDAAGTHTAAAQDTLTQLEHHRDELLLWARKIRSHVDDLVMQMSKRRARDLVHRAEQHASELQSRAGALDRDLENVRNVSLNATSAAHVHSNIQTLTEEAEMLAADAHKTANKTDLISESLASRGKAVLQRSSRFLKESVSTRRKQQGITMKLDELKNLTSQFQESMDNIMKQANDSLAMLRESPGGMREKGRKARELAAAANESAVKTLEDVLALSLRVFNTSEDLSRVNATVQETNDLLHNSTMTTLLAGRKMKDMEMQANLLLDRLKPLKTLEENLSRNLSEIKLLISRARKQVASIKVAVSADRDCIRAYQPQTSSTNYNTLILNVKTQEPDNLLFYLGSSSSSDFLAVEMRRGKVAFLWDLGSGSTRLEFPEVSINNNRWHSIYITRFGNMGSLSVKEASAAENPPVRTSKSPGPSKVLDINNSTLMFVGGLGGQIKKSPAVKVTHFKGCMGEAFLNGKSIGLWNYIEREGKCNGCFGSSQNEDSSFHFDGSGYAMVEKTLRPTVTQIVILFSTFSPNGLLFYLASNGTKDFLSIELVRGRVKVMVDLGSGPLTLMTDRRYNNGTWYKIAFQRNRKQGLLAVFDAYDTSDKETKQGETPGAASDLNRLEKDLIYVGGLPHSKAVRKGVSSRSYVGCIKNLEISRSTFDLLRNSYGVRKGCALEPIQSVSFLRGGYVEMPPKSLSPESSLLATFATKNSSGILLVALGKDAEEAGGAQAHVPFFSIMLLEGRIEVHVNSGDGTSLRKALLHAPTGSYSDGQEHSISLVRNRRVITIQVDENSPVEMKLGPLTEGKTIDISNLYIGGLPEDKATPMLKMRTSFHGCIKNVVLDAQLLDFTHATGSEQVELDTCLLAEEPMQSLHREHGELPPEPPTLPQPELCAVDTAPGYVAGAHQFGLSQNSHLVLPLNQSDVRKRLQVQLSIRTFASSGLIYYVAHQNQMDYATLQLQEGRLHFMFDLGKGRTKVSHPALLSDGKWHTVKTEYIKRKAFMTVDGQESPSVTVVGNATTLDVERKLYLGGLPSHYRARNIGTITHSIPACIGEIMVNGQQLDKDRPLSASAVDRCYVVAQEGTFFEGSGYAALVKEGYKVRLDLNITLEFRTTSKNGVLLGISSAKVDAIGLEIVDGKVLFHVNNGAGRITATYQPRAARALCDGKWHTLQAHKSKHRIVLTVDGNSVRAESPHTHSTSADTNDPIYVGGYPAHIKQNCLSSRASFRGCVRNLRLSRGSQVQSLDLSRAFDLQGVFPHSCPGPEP

human fibronectin = target: T2, human fibronectin (Homo sapiens, UniProt P02751); assay: Solid phase assay on immobilized fibronectin; assay type: binding; conditions: 50 μg/mL, versus bovine serum albumin
T2 construct: purchased Sigma

rat vitronectin = assay: Solid phase assay on immobilized vitronectin; assay type: binding; conditions: 50 μg/mL, versus bovine serum albumin
[2] = target: T3, type I collagen of rat tail tendon sections (Rattus norvegicus, UniProt P02454+P02466); assay: Histochemical analysis of peptide binding on rat tail tendon sections; conditions: biotinylated peptide
T3 construct: from tissue; host or cells: rat tail tendon, 20 μM frozen sections

murine laminin = target: T4, murine laminin (Mus musculus, UniProt P02468+P02469+P19137); assay: Solid phase assay on immobilized laminin; assay type: binding; conditions: 50 μg/mL
T4 construct: purchased Gibco

## CSCC[C@@H]1NC(=O)[C@H](C(C)C)NC(=O)[C@H](CCCNC(=N)N)NC(=O)[C@@H]2CCCN2C(=O)CNC(=O)[C@@H](NC(=O)CNC(=O)[C@H](CO)NC(=O)CNC(=O)[C@H](CO)NC(=O)CCCC[C@@H]2SC[C@@H]3NC(=O)N[C@@H]32)CSSC[C@@H](C(N)=O)NC(=O)[C@@H]2CCCN2C(=O)CNC(=O)[C@H](CCC(=O)O)NC(=O)[C@H](CC(=O)O)NC(=O)[C@H](CC(=O)O)NC(=O)CNC(=O)[C@H](CC(C)C)NC(=O)[C@H](Cc2c[nH]cn2)NC(=O)[C@H](CC(C)C)NC(=O)CNC(=O)[C@H](Cc2c[nH]cn2)NC1=O [collagelin] (Biotin-SGSGCGPRVMHGLHLGDDEGPC-NH2; disulfide 5-22)
[1]
  labeling of rat aorta sections: A brown color developed
Bovine fibrinogen
  binding to immobilized fibrinogen: did not bind
Human fibronectin
  binding to immobilized fibronectin: did not bind
Rat vitronectin
  binding to immobilized vitronectin: did not bind
[2]
  labeling of rat tail sections (fibers colored with Sirius red): An intense labeling
Murine laminin
  binding to immobilized laminin: bound to laminin
